The list shows a part of the results.
Compound: Cc1cc(ccc1-c1ccccc1)C(=O)N1CCCN(CC1)C(=O)CCl [compound 10]
Assay: probe-labelled cysteine peptide fold change vs DMSO (competition) (log2 fold change); higher = less target engagement (more negative = stronger competition)
Conditions: THP-1, incubation time: 4 h
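Further: competitive profiling in live THP-1 cells: cysteine peptides tagged with an iodoacetamide desthiobiotin (IA-DTB) probe, intensity after compound treatment relative to DMSO-treated cells.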

Chains of the proteins cited; added tags and fusions are not shown. Lines headed by an entry give the natural chain unless they say otherwise; changes in a name come on top.
UniProt P49643: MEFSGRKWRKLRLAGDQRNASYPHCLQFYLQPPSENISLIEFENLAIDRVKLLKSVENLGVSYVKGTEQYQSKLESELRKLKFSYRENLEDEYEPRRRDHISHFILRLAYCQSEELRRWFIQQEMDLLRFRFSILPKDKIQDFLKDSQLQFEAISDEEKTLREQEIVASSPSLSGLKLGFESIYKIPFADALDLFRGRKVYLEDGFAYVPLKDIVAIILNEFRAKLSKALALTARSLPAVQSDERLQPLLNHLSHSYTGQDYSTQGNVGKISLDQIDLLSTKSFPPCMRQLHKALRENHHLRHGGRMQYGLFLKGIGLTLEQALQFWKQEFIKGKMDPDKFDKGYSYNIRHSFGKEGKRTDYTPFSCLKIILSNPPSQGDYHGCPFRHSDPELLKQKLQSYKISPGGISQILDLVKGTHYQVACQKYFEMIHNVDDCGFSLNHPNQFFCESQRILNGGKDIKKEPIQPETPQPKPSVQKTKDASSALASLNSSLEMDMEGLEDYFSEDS
UniProt O43395: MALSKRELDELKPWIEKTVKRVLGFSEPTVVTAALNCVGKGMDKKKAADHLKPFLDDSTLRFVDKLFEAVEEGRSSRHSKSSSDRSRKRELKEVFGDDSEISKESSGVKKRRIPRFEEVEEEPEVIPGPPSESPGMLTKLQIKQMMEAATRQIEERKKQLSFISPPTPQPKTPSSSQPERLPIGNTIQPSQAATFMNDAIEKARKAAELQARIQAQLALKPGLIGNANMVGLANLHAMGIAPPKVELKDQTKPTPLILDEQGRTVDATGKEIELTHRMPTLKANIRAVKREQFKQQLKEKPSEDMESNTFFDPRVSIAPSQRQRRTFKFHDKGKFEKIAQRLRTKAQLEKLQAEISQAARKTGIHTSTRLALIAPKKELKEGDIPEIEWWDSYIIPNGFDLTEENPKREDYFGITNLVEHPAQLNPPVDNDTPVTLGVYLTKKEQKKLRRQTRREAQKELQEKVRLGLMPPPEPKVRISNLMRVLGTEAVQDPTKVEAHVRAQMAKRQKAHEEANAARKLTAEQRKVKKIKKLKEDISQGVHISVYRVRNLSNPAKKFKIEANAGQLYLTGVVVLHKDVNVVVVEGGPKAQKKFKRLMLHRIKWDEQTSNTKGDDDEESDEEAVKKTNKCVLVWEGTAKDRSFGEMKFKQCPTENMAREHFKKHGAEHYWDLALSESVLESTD
UniProt Q04759: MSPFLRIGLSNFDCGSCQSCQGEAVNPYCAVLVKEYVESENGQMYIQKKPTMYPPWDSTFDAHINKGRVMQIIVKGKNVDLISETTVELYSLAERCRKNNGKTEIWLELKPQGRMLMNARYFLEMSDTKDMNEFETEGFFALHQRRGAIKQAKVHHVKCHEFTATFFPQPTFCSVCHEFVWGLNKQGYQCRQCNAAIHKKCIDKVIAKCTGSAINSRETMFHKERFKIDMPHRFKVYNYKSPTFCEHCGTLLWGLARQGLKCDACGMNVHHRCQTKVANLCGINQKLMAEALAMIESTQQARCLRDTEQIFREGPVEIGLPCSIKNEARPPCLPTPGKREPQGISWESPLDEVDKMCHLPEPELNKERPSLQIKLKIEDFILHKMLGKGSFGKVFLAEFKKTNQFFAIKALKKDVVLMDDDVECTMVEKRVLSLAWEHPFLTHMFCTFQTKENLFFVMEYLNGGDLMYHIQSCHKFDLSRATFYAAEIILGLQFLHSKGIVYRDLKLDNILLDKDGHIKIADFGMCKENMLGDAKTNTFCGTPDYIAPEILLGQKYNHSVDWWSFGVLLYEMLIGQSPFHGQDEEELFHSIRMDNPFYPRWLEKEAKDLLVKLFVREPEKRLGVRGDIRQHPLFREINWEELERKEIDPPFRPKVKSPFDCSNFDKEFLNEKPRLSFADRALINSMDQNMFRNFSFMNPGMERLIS
UniProt Q86TP1: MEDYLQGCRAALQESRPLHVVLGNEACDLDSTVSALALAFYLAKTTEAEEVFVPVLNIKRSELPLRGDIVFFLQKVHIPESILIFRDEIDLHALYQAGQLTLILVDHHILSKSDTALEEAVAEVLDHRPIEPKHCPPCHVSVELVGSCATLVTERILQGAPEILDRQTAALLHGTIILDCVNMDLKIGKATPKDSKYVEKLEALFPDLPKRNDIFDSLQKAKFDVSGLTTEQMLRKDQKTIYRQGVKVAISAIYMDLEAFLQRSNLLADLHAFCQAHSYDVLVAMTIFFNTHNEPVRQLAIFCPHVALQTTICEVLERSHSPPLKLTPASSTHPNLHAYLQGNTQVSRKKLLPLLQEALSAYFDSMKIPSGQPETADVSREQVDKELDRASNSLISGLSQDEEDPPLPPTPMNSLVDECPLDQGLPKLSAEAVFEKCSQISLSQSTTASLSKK
UniProt Q8NDX1: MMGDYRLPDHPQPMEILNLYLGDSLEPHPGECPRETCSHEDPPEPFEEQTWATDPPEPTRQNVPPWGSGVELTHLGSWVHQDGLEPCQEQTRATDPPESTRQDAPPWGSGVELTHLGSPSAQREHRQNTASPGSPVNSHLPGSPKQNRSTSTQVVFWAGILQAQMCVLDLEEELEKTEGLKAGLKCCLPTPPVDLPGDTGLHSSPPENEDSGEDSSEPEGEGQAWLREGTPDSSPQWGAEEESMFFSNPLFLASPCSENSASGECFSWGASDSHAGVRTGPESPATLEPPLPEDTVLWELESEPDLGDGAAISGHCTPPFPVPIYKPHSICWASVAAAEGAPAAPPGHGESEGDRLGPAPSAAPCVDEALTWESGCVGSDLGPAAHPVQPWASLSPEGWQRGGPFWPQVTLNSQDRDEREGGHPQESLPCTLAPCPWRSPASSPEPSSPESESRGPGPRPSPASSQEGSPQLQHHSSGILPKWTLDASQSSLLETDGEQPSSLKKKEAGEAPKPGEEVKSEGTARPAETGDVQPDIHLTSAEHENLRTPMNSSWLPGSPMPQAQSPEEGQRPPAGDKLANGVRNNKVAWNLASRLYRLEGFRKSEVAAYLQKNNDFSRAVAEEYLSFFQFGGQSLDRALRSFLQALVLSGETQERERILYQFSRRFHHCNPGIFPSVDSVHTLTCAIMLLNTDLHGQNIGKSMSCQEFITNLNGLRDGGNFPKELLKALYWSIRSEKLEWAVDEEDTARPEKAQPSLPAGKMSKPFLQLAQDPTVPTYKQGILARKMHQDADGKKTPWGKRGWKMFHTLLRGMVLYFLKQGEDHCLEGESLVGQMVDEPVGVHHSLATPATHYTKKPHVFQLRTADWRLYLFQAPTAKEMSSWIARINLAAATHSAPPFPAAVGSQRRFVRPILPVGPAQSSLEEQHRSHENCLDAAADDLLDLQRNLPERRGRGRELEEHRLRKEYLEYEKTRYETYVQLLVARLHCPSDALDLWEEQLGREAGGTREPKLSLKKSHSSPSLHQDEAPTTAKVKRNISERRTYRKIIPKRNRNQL
UniProt O94906: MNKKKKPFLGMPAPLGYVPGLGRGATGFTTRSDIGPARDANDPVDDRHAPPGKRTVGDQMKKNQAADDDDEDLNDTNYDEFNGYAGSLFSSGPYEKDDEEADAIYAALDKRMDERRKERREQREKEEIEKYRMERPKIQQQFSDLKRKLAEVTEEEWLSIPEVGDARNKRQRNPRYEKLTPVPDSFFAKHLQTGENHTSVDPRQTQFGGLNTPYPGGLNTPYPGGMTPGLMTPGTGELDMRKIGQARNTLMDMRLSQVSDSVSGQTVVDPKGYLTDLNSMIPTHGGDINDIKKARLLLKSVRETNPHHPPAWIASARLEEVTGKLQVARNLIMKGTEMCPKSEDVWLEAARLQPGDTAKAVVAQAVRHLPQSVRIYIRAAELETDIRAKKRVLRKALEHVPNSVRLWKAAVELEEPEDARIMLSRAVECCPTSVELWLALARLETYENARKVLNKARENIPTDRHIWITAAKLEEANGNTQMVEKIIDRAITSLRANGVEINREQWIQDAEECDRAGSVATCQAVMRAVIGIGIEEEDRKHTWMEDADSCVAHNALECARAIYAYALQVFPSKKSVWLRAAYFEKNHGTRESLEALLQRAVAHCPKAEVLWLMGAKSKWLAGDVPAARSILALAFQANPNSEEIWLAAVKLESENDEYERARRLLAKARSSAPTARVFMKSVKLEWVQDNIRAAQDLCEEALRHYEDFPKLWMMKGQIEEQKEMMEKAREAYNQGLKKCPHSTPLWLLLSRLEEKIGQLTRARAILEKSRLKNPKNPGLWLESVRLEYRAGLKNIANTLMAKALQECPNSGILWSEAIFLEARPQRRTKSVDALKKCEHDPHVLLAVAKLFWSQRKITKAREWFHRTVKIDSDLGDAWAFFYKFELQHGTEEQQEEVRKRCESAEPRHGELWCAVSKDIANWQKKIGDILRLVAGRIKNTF
UniProt Q9UMS4: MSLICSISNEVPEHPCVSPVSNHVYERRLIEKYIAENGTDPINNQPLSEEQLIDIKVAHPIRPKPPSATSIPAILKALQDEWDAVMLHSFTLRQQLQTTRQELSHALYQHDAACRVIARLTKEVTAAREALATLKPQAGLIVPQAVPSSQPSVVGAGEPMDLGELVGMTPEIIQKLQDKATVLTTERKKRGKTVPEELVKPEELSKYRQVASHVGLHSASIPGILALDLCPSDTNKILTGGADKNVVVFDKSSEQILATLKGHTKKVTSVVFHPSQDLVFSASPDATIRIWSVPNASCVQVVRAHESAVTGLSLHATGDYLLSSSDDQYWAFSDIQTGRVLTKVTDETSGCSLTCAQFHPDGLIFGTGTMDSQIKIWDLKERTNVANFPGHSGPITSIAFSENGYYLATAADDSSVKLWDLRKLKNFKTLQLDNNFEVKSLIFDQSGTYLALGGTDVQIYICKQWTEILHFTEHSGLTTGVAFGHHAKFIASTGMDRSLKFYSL
UniProt P05771, whole entry, looked up: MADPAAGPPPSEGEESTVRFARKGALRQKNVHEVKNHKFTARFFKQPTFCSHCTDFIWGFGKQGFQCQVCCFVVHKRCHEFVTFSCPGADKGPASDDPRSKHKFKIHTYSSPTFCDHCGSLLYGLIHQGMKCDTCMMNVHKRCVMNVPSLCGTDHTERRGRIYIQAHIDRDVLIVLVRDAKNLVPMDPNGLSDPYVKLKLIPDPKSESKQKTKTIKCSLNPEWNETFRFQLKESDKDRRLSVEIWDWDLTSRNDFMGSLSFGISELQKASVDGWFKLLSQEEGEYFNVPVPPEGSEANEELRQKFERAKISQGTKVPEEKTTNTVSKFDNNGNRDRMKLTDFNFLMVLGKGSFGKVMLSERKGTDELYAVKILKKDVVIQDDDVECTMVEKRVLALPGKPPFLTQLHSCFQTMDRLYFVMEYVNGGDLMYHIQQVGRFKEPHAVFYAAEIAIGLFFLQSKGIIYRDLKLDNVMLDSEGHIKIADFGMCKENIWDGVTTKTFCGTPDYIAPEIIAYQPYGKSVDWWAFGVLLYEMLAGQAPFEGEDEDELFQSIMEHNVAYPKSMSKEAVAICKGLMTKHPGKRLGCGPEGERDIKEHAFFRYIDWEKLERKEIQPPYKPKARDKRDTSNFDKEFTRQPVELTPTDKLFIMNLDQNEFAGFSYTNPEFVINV
UniProt P31323, whole entry: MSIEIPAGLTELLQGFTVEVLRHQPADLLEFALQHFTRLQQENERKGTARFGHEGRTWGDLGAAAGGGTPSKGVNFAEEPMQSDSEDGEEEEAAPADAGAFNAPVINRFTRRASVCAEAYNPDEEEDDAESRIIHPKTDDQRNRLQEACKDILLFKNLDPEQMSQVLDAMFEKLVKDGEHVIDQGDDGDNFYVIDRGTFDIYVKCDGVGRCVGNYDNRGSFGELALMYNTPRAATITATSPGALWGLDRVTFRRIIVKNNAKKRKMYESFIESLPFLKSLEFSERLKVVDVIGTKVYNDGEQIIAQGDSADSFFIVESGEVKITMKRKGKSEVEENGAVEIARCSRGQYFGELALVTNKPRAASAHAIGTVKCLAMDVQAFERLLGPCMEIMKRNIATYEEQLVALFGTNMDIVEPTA

Target	probe-labelled cysteine peptide fold change (10 µM)	probe-labelled cysteine peptide fold change (50 µM)
PRIM2_P49643_424_GTHYQVACQK (UniProt P49643)	0.0708	0.193
PRPF3_O43395_37_VLGFSEPTVVTAALNCVGK (UniProt O43395)	0.233	-0.0316
PRKCD_Q05655_172_NHEFIATFFGQPTFCSVCK (UniProt Q05655)	-0.307	-0.424
PRKCQ_Q04759_193_QCNAAIHK (UniProt Q04759)	-0.474	-0.576
PRUNE1_Q86TP1_303_QLAIFCPHVALQTTICEVLER (UniProt Q86TP1)	-0.0186	-0.0629
PRUNE1_Q86TP1_180_QTAALLHGTIILDCVNMDLK (UniProt Q86TP1)	0.322	0.175
PRPF3_O43395_37_RVLGFSEPTVVTAALNCVGK (UniProt O43395)	-0.112	0.0437
PSD4_Q8NDX1_705_SMSCQEFITNLNGLR (UniProt Q8NDX1)	0.0157	-0.159
PRPF8_Q6P2Q9_435_EHCPAGQPVK (UniProt Q6P2Q9)	-0.0827	0.14
PRPF6_O94906_513_EQWIQDAEECDR (UniProt O94906)	-0.0378	0.191
PRKDC_P78527_25_CGAALAGHQLIR (UniProt P78527)	-0.441	-0.13
PRPF19_Q9UMS4_298_IWSVPNASCVQVVR (UniProt Q9UMS4)	0.193	0.163
PRKCB_P05771_78+86_CHEFVTFSCPGADK (UniProt P05771)	-0.133	-0.364
PRKAR2B_P31323_116_RASVCAEAYNPDEEEDDAESR (UniProt P31323)	-0.353	0.149
